Data on two substances can be found in patent US20190062384A1.

No constants are given. Whether binding was seen depends on the method and setting. In cells and extracts the contact can be indirect. Some results given as binding are weak or reduced against the parent protein; the word gives no strength.

In assay [1] the target is Ostrinia nubilalis Bt toxin receptor (SEQ ID NO: 4) (Ostrinia nubilalis). The assay can be described thus: co-immunoprecipitation from O. nubilalis BBMVs with 1 uM or 100 nM IP2.127, SDS-PAGE gel.
The target of assay [2] is Helicoverpa zea Bt toxin receptor (SEQ ID NO: 2) (Helicoverpa zea). Kind of assay: co-precipitation from H. zea BBMVs with 1 uM or 100 nM biotin-labeled IP2.127, SDS-PAGE gel.

“IP2.127 (from UniProt P21254 2-633) (ligand)”: the binding result in assay [1] is “binds”.
For the substance “biotin labeled IP2.127 (from UniProt P21254 2-633) (ligand)”, the binding result in assay [2] is on record as “binds”.
